Source: patent US20030162221A1
Results are given in words; binding and its absence hold for the method and conditions named. Binding seen in cells or lysates may run through a third protein. Some binding calls cover weakened binding; strength is not graded here. For some of these results: Tags and fused reporters may be left off the sequences shown.

The chains behind the UniProt entries cited, without tags or fusion partners.
UniProt Q00416: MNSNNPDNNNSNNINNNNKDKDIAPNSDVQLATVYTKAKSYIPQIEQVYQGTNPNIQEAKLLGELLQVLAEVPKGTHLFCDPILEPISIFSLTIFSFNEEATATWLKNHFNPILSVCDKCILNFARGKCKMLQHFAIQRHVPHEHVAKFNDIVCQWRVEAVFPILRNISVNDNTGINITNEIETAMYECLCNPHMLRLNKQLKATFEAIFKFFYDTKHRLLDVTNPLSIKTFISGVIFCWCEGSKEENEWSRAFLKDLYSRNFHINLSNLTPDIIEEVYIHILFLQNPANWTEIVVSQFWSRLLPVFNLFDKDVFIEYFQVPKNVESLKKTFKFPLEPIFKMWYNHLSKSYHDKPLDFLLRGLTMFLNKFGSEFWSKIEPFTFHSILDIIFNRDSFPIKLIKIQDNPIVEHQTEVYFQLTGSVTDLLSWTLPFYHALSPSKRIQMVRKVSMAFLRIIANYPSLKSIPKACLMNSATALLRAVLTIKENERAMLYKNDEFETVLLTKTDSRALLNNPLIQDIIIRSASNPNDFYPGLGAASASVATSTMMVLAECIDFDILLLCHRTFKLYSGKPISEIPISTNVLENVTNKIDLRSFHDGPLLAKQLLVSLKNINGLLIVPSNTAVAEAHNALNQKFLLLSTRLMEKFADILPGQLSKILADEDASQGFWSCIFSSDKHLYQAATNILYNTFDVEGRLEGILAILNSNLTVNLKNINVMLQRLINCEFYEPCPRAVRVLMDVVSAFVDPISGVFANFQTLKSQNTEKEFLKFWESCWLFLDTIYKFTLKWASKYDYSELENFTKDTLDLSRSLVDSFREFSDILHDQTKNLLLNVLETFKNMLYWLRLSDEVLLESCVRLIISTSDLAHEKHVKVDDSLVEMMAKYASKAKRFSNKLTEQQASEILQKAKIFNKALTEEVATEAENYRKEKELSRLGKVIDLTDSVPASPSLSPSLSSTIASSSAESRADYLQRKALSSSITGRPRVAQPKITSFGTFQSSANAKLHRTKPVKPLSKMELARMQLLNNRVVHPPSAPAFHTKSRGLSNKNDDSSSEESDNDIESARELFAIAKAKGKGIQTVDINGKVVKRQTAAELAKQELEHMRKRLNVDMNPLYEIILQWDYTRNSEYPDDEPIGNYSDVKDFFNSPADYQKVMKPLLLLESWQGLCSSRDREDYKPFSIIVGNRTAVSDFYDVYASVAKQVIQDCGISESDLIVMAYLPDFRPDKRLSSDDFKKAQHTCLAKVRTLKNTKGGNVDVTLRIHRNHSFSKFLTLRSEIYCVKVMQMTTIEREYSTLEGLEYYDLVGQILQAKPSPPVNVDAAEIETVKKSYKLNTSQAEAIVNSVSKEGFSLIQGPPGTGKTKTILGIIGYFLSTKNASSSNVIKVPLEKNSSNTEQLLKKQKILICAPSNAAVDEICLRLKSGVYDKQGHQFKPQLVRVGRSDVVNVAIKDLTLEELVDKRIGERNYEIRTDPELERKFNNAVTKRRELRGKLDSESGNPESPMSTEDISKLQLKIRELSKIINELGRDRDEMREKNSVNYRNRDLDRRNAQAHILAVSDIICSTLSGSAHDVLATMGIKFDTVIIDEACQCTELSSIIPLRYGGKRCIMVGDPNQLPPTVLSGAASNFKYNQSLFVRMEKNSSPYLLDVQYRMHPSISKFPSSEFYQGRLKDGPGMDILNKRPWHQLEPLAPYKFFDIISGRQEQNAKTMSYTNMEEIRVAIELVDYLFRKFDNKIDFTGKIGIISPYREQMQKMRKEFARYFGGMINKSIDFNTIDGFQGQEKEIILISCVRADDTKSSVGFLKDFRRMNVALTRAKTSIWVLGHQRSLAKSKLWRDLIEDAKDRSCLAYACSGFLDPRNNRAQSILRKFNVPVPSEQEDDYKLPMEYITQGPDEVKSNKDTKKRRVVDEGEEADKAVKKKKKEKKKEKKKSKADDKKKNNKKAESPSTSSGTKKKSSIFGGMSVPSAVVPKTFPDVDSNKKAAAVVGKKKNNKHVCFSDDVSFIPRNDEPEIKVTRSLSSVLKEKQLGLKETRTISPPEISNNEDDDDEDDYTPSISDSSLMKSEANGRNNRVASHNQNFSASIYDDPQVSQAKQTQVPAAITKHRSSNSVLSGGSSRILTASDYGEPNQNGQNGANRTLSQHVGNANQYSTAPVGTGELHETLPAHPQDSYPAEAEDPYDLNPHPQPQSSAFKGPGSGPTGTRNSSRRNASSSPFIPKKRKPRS
UniProt P32598: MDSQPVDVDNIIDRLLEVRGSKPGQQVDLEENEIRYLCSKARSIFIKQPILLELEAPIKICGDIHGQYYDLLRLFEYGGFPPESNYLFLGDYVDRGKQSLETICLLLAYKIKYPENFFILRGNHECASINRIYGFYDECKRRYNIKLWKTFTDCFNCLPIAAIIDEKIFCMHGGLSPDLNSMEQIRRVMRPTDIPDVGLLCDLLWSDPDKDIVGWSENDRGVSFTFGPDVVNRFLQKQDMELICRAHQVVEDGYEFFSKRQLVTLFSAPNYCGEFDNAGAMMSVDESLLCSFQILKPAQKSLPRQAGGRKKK

Legend:
Assay in all cases: anti-FLAG co-IP, LC-MS/MS
[1] = target: T1, Kel1 (Saccharomyces cerevisiae) (UniProt P38853)
T1 sequence (looked up): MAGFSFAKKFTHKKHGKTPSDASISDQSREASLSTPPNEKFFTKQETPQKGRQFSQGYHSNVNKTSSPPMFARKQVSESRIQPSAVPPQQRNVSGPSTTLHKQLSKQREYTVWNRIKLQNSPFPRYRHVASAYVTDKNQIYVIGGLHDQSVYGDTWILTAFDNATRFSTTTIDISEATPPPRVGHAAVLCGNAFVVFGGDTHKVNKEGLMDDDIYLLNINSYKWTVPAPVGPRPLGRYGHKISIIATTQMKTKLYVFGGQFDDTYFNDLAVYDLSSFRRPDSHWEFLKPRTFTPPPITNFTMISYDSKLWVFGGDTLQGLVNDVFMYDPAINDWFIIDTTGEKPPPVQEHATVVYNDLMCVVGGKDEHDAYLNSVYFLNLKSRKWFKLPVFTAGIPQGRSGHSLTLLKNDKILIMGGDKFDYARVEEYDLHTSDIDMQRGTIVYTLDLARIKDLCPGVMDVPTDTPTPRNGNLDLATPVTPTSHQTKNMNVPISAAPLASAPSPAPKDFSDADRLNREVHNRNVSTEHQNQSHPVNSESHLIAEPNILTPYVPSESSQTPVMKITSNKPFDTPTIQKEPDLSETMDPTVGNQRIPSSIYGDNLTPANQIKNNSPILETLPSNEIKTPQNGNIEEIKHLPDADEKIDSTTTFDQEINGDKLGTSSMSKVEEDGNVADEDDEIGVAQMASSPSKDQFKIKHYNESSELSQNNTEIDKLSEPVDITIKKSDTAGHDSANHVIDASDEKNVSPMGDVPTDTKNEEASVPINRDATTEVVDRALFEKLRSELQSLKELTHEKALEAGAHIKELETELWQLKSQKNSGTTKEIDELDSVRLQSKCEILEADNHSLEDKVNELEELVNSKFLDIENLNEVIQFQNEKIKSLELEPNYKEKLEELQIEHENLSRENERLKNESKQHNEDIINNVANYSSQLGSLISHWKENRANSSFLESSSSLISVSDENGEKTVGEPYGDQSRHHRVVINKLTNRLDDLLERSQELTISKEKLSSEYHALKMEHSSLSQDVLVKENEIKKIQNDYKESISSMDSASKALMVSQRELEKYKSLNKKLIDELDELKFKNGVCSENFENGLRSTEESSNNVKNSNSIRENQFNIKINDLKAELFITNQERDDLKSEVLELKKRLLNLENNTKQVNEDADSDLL

[2] = target: T2, Fip1 (Saccharomyces cerevisiae) (UniProt P45976)
T2 sequence (looked up): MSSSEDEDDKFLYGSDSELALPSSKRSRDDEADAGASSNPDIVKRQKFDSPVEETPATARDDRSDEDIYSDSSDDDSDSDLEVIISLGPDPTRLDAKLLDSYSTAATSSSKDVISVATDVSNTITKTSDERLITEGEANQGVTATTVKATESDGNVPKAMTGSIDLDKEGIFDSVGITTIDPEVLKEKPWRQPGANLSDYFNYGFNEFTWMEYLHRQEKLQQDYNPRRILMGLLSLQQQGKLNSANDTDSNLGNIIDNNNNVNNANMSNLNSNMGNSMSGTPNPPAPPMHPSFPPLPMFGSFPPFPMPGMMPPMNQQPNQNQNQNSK

[3] = target: Sen1 (Saccharomyces cerevisiae) (UniProt Q00416)
[4] = target: T3, Cft1 (Saccharomyces cerevisiae) (UniProt Q06632)
T3 sequence (looked up): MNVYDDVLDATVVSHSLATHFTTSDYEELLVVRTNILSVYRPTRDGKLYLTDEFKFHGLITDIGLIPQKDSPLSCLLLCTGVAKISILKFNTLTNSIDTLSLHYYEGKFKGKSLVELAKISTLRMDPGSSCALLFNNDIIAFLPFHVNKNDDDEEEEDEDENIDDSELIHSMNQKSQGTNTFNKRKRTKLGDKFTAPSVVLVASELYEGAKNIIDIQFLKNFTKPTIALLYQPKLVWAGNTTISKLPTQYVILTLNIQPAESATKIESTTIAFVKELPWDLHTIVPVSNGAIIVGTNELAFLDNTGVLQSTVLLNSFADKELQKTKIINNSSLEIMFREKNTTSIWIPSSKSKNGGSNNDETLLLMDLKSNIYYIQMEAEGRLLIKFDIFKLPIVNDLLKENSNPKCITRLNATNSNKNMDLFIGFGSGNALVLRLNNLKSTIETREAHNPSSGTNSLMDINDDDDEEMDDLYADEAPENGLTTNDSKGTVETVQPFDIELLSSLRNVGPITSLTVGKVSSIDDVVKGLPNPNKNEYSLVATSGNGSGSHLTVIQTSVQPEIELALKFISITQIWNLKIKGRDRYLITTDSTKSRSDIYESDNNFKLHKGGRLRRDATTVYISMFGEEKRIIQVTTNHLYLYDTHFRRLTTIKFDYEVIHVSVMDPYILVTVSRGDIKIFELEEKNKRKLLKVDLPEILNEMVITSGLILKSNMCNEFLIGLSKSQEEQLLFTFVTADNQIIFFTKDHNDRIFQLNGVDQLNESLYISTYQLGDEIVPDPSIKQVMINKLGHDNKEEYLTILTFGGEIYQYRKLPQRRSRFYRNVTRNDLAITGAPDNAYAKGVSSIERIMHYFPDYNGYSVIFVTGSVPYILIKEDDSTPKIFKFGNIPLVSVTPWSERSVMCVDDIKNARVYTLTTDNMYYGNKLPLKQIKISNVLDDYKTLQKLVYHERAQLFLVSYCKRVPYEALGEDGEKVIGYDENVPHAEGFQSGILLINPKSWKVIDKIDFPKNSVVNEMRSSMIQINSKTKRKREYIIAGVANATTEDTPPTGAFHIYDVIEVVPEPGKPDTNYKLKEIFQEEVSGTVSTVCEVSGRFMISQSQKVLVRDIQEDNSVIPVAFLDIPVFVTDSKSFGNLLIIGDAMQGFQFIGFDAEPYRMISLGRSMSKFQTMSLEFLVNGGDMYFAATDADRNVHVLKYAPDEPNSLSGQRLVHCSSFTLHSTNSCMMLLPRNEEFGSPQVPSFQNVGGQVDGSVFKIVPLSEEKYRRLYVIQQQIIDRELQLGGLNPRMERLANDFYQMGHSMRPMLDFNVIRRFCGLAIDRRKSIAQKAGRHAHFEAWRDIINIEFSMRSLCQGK

Measured: binding

Glc7 (from UniProt P32598 1-312)
binds: all assays above
